Results are given in words; binding and its absence hold for the method and conditions named. In cells and extracts the contact can be indirect. A yes stands for co-enrichment or nearness to the bait. Other partners may have been found.
Molecular target: GABA type A receptor γ2 subunit (mouse (endogenous in cortical tissue)) (UniProt P22723)
Test: affinity purification with mass spectrometry; mouse cortical tissue lysate (mice injected with vehicle or 10 mg/kg DZP, 12 h) in co-IP buffer (50 mM Tris HCl pH 7.6, 50 mM NaCl, 0.25% Igepal, 1 mM EDTA), immunoprecipitated overnight with rabbit γ2 subunit antibody or rabbit IgG, Protein A Sepharose, 4°C; label-free HPLC-ESI-MS/MS; hits at least 3:1 enriched over IgG control

Chains of the proteins cited; added tags and fusions are not shown. Residues count along the entry.
UniProt P22723, residues 39-474: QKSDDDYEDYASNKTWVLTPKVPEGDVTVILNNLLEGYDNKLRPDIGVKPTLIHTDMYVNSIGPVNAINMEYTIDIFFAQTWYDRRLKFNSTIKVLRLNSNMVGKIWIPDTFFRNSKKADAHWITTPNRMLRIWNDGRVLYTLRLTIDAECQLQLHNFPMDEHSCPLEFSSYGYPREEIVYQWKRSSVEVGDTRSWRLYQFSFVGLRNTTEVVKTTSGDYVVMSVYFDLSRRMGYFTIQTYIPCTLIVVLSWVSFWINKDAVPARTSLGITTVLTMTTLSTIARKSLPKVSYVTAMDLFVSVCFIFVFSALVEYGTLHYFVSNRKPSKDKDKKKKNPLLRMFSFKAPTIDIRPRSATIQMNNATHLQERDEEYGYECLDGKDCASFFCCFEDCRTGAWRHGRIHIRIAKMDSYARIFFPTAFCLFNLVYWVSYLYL

binding | Binder
binds | Dihydropyrimidinase like 5 (protein, UniProt Q9EQF6 1-564) MLANSASVRILIKGGKVVNDDCTHEADVYIESGIIQQVGRELMIPGGAKVIDATGKLVIPGGIDTSTHFHQTFMNATCVDDFYHGTKAALVGGTTMIIGHVLPDKETSLVEAYEKCRALADPKVCCDYALHVGITWWAPKVKAEMETLVREKGVNSFQMFMTYKDLYMLRDSELYQVFHACRDIGAIPRVHAENGELVAEGAKEALDLGITGPEGIEISHPEELEAEATHRVITIANRTHCPIYLVNVSSISAGDVIAAAKMQGKVVLAETTNAHATLTGLHYYHQDWSHAAAYVTVPPLRLDTNTSTYLMSLLANDTLNIVASDHRPFTTKQKAMGKEDFTKIPHGVSGVQDRMSVVWERGVVGGKMDENRFVAVTSSNAAKILNLYPRKGRIIPGADADVVVWDPEATKTISASTQVQGGDFNLYENMRCHGVPLVTISRGRVVYENGVFMCAEGTGKFCPLRSFPDIVYKKLVQREKTLKVRGVDRTPYLGDVAIVVHPGKKEMGTPLADTPTRPVTRHGGMRDLHESSFSLSGSQIDDHVPKRASARILAPPGGRSSGIW
binds | Aconitase 2 (protein, UniProt Q99KI0 28-780) QRAKVAMSHFEPSEYIRYDLLEKNINIVRKRLNRPLTLSEKIVYGHLDDPANQEIERGKTYLRLRPDRVAMQDATAQMAMLQFISSGLPKVAVPSTIHCDHLIEAQVGGEKDLRRAKDINQEVYNFLATAGAKYGVGFWRPGSGIIHQIILENYAYPGVLLIGTDSHTPNGGGLGGICIGVGGADAVDVMAGIPWELKCPKVIGVKLTGSLSGWTSPKDVILKVAGILTVKGGTGAIVEYHGPGVDSISCTGMATICNMGAEIGATTSVFPYNHRMKKYLSKTGRTDIANLAEEFKDHLVPDPGCQYDQVIEINLNELKPHINGPFTPDLAHPVADVGTVAEKEGWPLDIRVGLIGSCTNSSYEDMGRSAAVAKQALAHGLKCKSQFTITPGSEQIRATIERDGYAQILRDVGGIVLANACGPCIGQWDRKDIKKGEKNTIVTSYNRNFTGRNDANPETHAFVTSPEIVTALAIAGTLKFNPETDFLTGKDGKKFKLEAPDADELPRSDFDPGQDTYQHPPKDSSGQRVDVSPTSQRLQLLEPFDKWDGKDLEDLQILIKVKGKCTTDHISAAGPWLKFRGHLDNISNNLLIGAINIENGKANSVRNAVTQEFGPVPDTARYYKKHGIRWVVIGDENYGEGSSREHAALEPRHLGGRAIITKSFARIHETNLKKQGLLPLTFADPSDYNKIHPVDKLTIQGLKDFAPGKPLKCVIKHPNGTQETILLNHTFNETQIEWFRAGSALNRMKELQQ
binds | Synaptogyrin 3 (protein, UniProt Q8R191 1-229) MEGASFGAGRAGAAFDPVSFARRPQTLLRVVSWVFSIAVFGPIVNEGYVNSDSGPELRCVFNGNAGACRFGVVLGLGAFIACVAFLLLDVRFQQISSVRDRRRAVLLDLGFSGVWSFLWFVGFCFLTNQWQRTTPGPGTAQAGDAARAAIAFSFFSILSWVALTVKALQRFRLGTDMSLFATDQLGTGAAQAYPGYPVGSGVEGTETYQSPPFTETLDTSSKGYQVPAY
binds | ATP synthase peripheral stalk subunit OSCP (protein, UniProt Q9DB20 24-213) FAKLVRPPVQVYGIEGRYATALYSAASKEKKLDQVEKELLRVGQLLKDPKVSLAVLNPYIKRTVKVKSLNDITKREKFSPLTANLMNLLAENGRLGNTQGIISAFSTIMSVHRGEVPCTVTTASPLDDAVLSELKTVLKSFLSPNQILKLEIKTDPSIMGGMIVRIGEKYVDMSAKSKIQKLSKAMREML
binds | Neurofilament, medium polypeptide (protein, UniProt P08553 1-848) MSYTLDSLGNPSAYRRVTETRSSFSRVSGSPSSGFRSQSWSRGSPSTVSSSYKRSALAPRLAYSSAMLSSAESSLDFSQSSSLLNGGSGGDYKLSRSNEKEQLQGLNDRFAGYIEKVHYLEQQNKEIEAEIQALRQKQASHAQLGDAYDQEIRELRATLEMVNHEKAQVQLDSDHLEEDIHRLKERFEEEARLRDDTEAAIRALRKDIEESSMVKVELDKKVQSLQDEVAFLRSNHEEEVADLLAQIQASHITVERKDYLKTDISTALKEIRSQLECHSDQNMHQAEEWFKCRYAKLTEAAEQNKEAIRSAKEEIAEYRRQLQSKSIELESVRGTKESLERQLSDIEERHNHDLSSYQDTIQQLENELRGTKWEMARHLREYQDLLNVKMALDIEIAAYRKLLEGEETRFSTFSGSITGPLYTHRQPSVTISSKIQKTKVEAPKLKVQHKFVEEIIEETKVEDEKSEMEETLTAIAEELAASAKEEKEEAEEKEEEPEAEKSPVKSPEAKEEEEEGEKEEEEEGQEEEEEEDEGVKSDQAEEGGSEKEGSSEKDEGEQEEEEGETEAEGEGEEAEAKEEKKIEGKVEEVAVKEEIKVEKPEKAKSPMPKSPVEEVKPKPEAKAGKGEQKEEEKVEEEKKEVTKESPKEEKVEKKEEKPKDVADKKKAESPVKEKAVEEVITISKSVKVSLEKDTKEEKPQPQEKVKEKAEEEGGSEEEGSDRSPQESKKEDIAINGEVEGKEEEEQETQEKGSGREEEKGVVTNGLDVSPAEEKKGEDSSDDKVVVTKKVEKITSEGGDGATKYITKSVTVTQKVEEHEETFEEKLVSTKKVEKVTSHAIVKEVTQGD
binds | Carbonyl reductase 1 (protein, UniProt P48758 1-277) MSSSRPVALVTGANKGIGFAITRDLCRKFSGDVVLAARDEERGQTAVQKLQAEGLSPRFHQLDIDNPQSIRALRDFLLKEYGGLDVLVNNAGIAFKVNDDTPFHIQAEVTMKTNFFGTRDVCKELLPLIKPQGRVVNVSSMVSLRALKNCRLELQQKFRSETITEEELVGLMNKFVEDTKKGVHAEEGWPNSAYGVTKIGVTVLSRILARKLNEQRRGDKILLNACCPGWVRTDMAGPKATKSPEEGAETPVYLALLPPDAEGPHGQFVQDKKVEPW
binds | Succinate-CoA ligase ADP-forming beta subunit (protein, UniProt Q9Z2I9 54-463) SLHEYLSMELLQEAGVSVPKGFVAKSSDEAYAIAKKLGSKDVVIKAQVLAGGRGKGTFTSGLKGGVKIVFSPEEAKAVSSQMIGQKLITKQTGEKGRICNQVLVCERKYPRREYYFAITMERSFQGPVLIGSAQGGVNIEDVAAENPEAIVKEPIDIVEGIKKEQAVTLAQKMGFPSNIVDSAAENMIKLYNLFLKYDATMVEINPMVEDSDGKVLCMDAKINFDSNSAYRQKKIFDLQDWSQEDERDKEAANADINYIGLDGSIGCLVNGAGLAMATMDIIKLHGGTPANFLDVGGGATVQQVTEAFKLITSDKKVQAILVNIFGGIMRCDVIAQGIVMAVKDLEIRIPVVVRLQGTRVDDAKALIADSGLKILACDDLDEAAKMVVKLSEIVTLAKEAHVDVKFQLPI
binds | Contactin 1 (protein, UniProt P12960 21-1001) DFTWHRRYGHGVSEEDKGFGPIFEEQPINTIYPEESLEGKVSLNCRARASPFPVYKWRMNNGDVDLTNDRYSMVGGNLVINNPDKQKDAGVYYCLASNNYGMVRSTEATLSFGYLDPFPPEERPEVKVKEGKGMVLLCDPPYHFPDDLSYRWLLNEFPVFITMDKRRFVSQTNGNLYIANVESSDRGNYSCFVSSPSITKSVFSKFIPLIPIPERTTKPYPADIVVQFKDIYTMMGQNVTLECFALGNPVPDIRWRKVLEPMPSTAEISTSGAVLKIFNIQLEDEGLYECEAENIRGKDKHQARIYVQAFPEWVEHINDTEVDIGSDLYWPCIATGKPIPTIRWLKNGYSYHKGELRLYDVTFENAGMYQCIAENAYGSIYANAELKILALAPTFEMNPMKKKILAAKGGRVIIECKPKAAPKPKFSWSKGTEWLVNSSRILIWEDGSLEINNITRNDGGIYTCFAENNRGKANSTGTLVITNPTRIILAPINADITVGENATMQCAASFDPALDLTFVWSFNGYVIDFNKEITHIHYQRNFMLDANGELLIRNAQLKHAGRYTCTAQTIVDNSSASADLVVRGPPGPPGGLRIEDIRATSVALTWSRGSDNHSPISKYTIQTKTILSDDWKDAKTDPPIIEGNMESAKAVDLIPWMEYEFRVVATNTLGTGEPSIPSNRIKTDGAAPNVAPSDVGGGGGTNRELTITWAPLSREYHYGNNFGYIVAFKPFDGEEWKKVTVTNPDTGRYVHKDETMTPSTAFQVKVKAFNNKGDGPYSLVAVINSAQDAPSEAPTEVGVKVLSSSEISVHWKHVLEKIVESYQIRYWAGHDKEAAAHRVQVTSQEYSARLENLLPDTQYFIEVGACNSAGCGPSSDVIETFTRKAPPSQPPRIISSVRSGSRYIITWDHVVALSNESTVTGYKILYRPDGQHDGKLFSTHKHSIEVPIPRDGEYVVEVRAHSDGGDGVVSQVKISGVSTLS
